Reference: PubChem BioAssay AID901 (National Center for Advancing Translational Sciences (NCATS), 2007)
The list shows a part of the results. Shown are side measurements of this screen, not its main read-out; they come without a call. The list favours compounds with an active or inconclusive main result. The note in brackets gives the kind of curve behind each potency; many fits are weak.

Assay: qHTS Assay for Identifying the Cell-Membrane Permeable IMPase Inhibitors
Settings: CHO-M1 cells, IP1 accumulation, HTRF TR-FRET ratio; measured here: donor channel 620 nm AC50

SMILES | AC50
COc1ccc(OC)c(NC(=O)N[C@@H](Cc2ccccc2)C(=O)O)c1 | 0.02 µM [falling, full curve, poor fit]
CCOC(=O)c1c(N=CN(C)C)c(C#N)c2n1CCCC2 | 0.0251 µM [falling, full curve, poor fit]
CCOc1ccc2[nH]c(S(=O)(=O)CC)nc2c1Cl | 0.447 µM [falling, full curve]
O=C(Nc1ccc(Cl)c(-c2nc3cc(Cl)ccc3o2)c1)c1cc2ccccc2o1 | 5.62 µM [falling, single point]
COc1ccc(CCNc2oc(COc3ccccc3F)nc2C#N)cc1OC | 3.98 µM [rising, partial curve, poor fit]
CCCc1ccc(C(=O)NNC(=O)c2ccc(Cl)cc2)cc1 | 10 µM [falling, partial curve, poor fit]
COc1cccc(OC)c1C(=O)Nc1ccc(S(=O)(=O)Nc2nccc(C)n2)cc1 | 0.316 µM [falling, full curve]
CCN(CC)CCN1C(=O)C2C3c4ccccc4C(c4ccccc43)C2C1=O (centres undefined) | 3.16 µM [falling, single point]
COC(=O)c1ccc(SCC(=O)NC2CCCCC2)c([N+](=O)[O-])c1 | 25.1 µM [rising, single point]
CCN(CCCNC(=O)c1ccc(N2CCCC2=O)cc1)c1cccc(C)c1 | 0.0158 µM [rising, full curve, poor fit]
Cc1cccc(-c2nc3c(c(SCC(N)=O)n2)CCCC3)c1 | 0.251 µM [rising, partial curve]
CCCCSc1cnn(-c2ccccc2)c(=O)c1SCCCC | 20 µM [rising, single point]
COc1ccc(-c2nnc(SCC(=O)c3[nH]c(C)c(C(C)=O)c3C)o2)cc1 | 0.631 µM [falling, partial curve, poor fit]
O=c1c(O)c(-c2ccc(O)c(O)c2)oc2c(OC[C@@H]3O[C@@H](O)[C@@H](O)[C@H](O)[C@H]3O)c(O)cc(O)c12 | 15.8 µM [falling, partial curve, poor fit]
COc1ccc(N2CCN(CCCNC(=O)CN3CCN(Cc4ccccc4C)C3=O)CC2)cc1 | 5.01 µM [falling, single point]
CC(=O)c1ccc(NC(=S)N2C(C)CCCC2C)cc1 (centres undefined) | 2.51 µM [rising, single point]
NC(=O)COC(=O)c1ccc(Oc2ccccc2)cc1 | 6.31 µM [falling, single point]
CCOC(=O)C(CCCOc1ccccc1)C(=O)OCC | 31.6 µM [falling, single point]
CCCS(=O)(=O)c1c(S(=O)(=O)CCC)c2c(N)cccn2c1C(=O)c1ccc(F)cc1 | 0.0316 µM [falling, full curve, poor fit]
COc1cc(NS(=O)(=O)c2ccccc2)ccc1-n1nc(C)cc1C | 3.16 µM [falling, partial curve]
CCOC(=O)c1cnc(SCC(=O)Nc2nc(C)c(C)s2)nc1N | 0.0398 µM [falling, full curve, poor fit]
CC(C)CN1C(=O)NC(NC(=O)c2cccnc2)(C(F)(F)F)C1=O (centres undefined) | 31.6 µM [falling, single point]

A second format for some results above.
SMILES	AC50
COc1ccc(CCNc2oc(COc3ccccc3F)nc2C#N)cc1OC	3.98 µM [rising, partial curve, poor fit]
CCCc1ccc(C(=O)NNC(=O)c2ccc(Cl)cc2)cc1	10 µM [falling, partial curve, poor fit]
COc1cccc(OC)c1C(=O)Nc1ccc(S(=O)(=O)Nc2nccc(C)n2)cc1	0.316 µM [falling, full curve]
CCN(CC)CCN1C(=O)C2C3c4ccccc4C(c4ccccc43)C2C1=O (centres undefined)	3.16 µM [falling, single point]
COC(=O)c1ccc(SCC(=O)NC2CCCCC2)c([N+](=O)[O-])c1	25.1 µM [rising, single point]
CCN(CCCNC(=O)c1ccc(N2CCCC2=O)cc1)c1cccc(C)c1	0.0158 µM [rising, full curve, poor fit]
Cc1cccc(-c2nc3c(c(SCC(N)=O)n2)CCCC3)c1	0.251 µM [rising, partial curve]
CCCCSc1cnn(-c2ccccc2)c(=O)c1SCCCC	20 µM [rising, single point]
COc1ccc(-c2nnc(SCC(=O)c3[nH]c(C)c(C(C)=O)c3C)o2)cc1	0.631 µM [falling, partial curve, poor fit]
O=c1c(O)c(-c2ccc(O)c(O)c2)oc2c(OC[C@@H]3O[C@@H](O)[C@@H](O)[C@H](O)[C@H]3O)c(O)cc(O)c12	15.8 µM [falling, partial curve, poor fit]
COc1ccc(N2CCN(CCCNC(=O)CN3CCN(Cc4ccccc4C)C3=O)CC2)cc1	5.01 µM [falling, single point]
CC(=O)c1ccc(NC(=S)N2C(C)CCCC2C)cc1 (centres undefined)	2.51 µM [rising, single point]
NC(=O)COC(=O)c1ccc(Oc2ccccc2)cc1	6.31 µM [falling, single point]
CCOC(=O)C(CCCOc1ccccc1)C(=O)OCC	31.6 µM [falling, single point]

(cont.)

SMILES | AC50
COc1ccc(C(C(=O)NC2CCCC2)N(C(=O)c2ccoc2C)c2ccc(C)cc2)cc1 (centres undefined) | 0.0126 µM [falling, full curve, poor fit]
Cc1cc(C)c(N=Cc2c(O)n(-c3nccs3)c(=O)c3ccccc23)c(C)c1 | 5.01 µM [rising, single point]
CC(=O)N1CCc2cc(S(=O)(=O)CCC(=O)N3CCN(c4ccccn4)CC3)ccc21 | 0.631 µM [falling, full curve]
CCOC(=O)N1CCN(C(=O)N2CCOCC2)CC1 | 0.00447 µM [falling, full curve, poor fit]
Cc1cc(Nc2ccc3c(c2)OCCO3)n2ncnc2n1 | 0.126 µM [falling, full curve, poor fit]
Cc1ccc(N(CC(=O)NCCSCc2ccco2)S(=O)(=O)c2ccc(C)cc2)cc1 | 0.158 µM [rising, full curve, poor fit]
CCOc1ccc(NC(=O)CSCC(=O)O)cc1 | 0.2 µM [falling, full curve, poor fit]
O=C(CSc1nnc(-c2ccc3c(c2)OCO3)n1-c1ccccc1)c1ccccc1 | 35.5 µM [rising, single point]
CCCCNC(=O)Nc1ccccc1C(=O)NCCC | 20 µM [rising, single point]
CCn1nnnc1SCC(=O)N(C1CCCCC1)C1CCCCC1 | 10 µM [falling, partial curve, poor fit]
CCOC(=O)c1cccc(NC(=O)Nc2c(C)n(C)n(-c3ccccc3)c2=O)c1 | 1.26 µM [rising, partial curve, poor fit]
Cc1cc(C)nc(NC(=O)CSc2ccccn2)n1 | 0.316 µM [falling, partial curve]
O=S(=O)(c1cccc(-c2nc3n(n2)Cc2ccccc2-3)c1)N1CCCCC1 | 31.6 µM [rising, single point]
COc1ccc(N2CCN(CC(=O)NC(=O)NCc3ccco3)CC2)cc1 | 4.47 µM [rising, single point]
O=C(CCCn1c(=O)[nH]c2cc(Cl)ccc2c1=O)N1CCN(c2ccc([N+](=O)[O-])cc2)CC1 | 5.01 µM [falling, full curve]
COc1ccc(CCn2c(SCC(=O)Nc3cc(C)on3)nc3ccsc3c2=O)cc1OC | 1.12 µM [rising, full curve]
COc1ccc(CNc2nc3nc(-c4ccccc4)cc(=O)n3[nH]2)cc1OC | 35.5 µM [rising, single point]
N#C/C(=C\c1ccc(N2CCOCC2)o1)c1nc2ccccc2[nH]1 | 20 µM [falling, single point]
CO[C@]1(NC(=O)CSCC#N)C(=O)N2C(C(=O)O)=C(CSc3nnnn3C)CS[C@H]21 | 0.0501 µM [falling, full curve, poor fit]
COc1ccccc1N1CCN(S(=O)(=O)c2ccccc2F)CC1 | 20 µM [falling, partial curve, poor fit]
COc1cccc(CN(Cc2cccnc2)S(=O)(=O)c2ccc(-n3cnnn3)c(C)c2)c1OC | 0.0316 µM [falling, full curve]
Clc1cccc(-c2ccc(/C=N/n3cnnc3)o2)c1 | 5.01 µM [rising, single point]

SMILES | AC50
CCn1nc(C)c(NC(=O)CCCSc2nc(-c3ccco3)cc(C(F)(F)F)n2)c1C | 1 µM [falling, single point]
CCOC(=O)N1CCN(C(=O)C(NC(=O)C2CCC(C)CC2)C(C)C)CC1 (centres undefined) | 1.58 µM [rising, full curve, poor fit]
O=C(c1ccc(CS(=O)(=O)c2cccc(C(F)(F)F)c2)o1)N1CCN(c2ccccn2)CC1 | 5.01 µM [rising, single point]
O=C(Nc1ccc(F)cc1Cl)c1ccc2c(=O)n3c(nc2c1)CCCCC3 | 25.1 µM [falling, single point]
C=CCNc1nc(-c2sc(NC(C)=O)nc2C)cs1 | 15.8 µM [falling, partial curve, poor fit]
CCOC(=O)N1CCC(NC(=O)CSc2cc(=O)n(C)c3ccccc23)CC1 | 2 µM [rising, full curve]
CCOc1ccc2nc(NC(=O)C3CCCN(S(=O)(=O)c4cccs4)C3)sc2c1 (centres undefined) | 5.01 µM [rising, single point]
COc1ccc(N2CCN(C(c3ccccc3)c3nnnn3Cc3ccc(F)cc3)CC2)cc1 (centres undefined) | 0.794 µM [falling, full curve, poor fit]
CCc1ccc(C2CC(=O)c3c([nH]c(C(=O)OC4CCCCCC4)c3C)C2)cc1 (centres undefined) | 0.00316 µM [falling, full curve, poor fit]
Cc1nn(C(=O)N2CCOCC2)c(C)c1C | 5.01 µM [falling, single point]
Cc1ccc(-c2nc3ccccc3n3c(C)nnc23)cc1 | 0.00316 µM [falling, full curve, poor fit]
COCCn1c(=O)[nH]c(=O)c2c(C(F)(F)F)cc(-c3cccs3)nc21 | 35.5 µM [rising, single point]
Cc1cc2cc(OCC(=O)O)ccc2n1C | 5.01 µM [falling, single point]
C=CCN(C(=O)COc1ccccc1)c1nnc(-c2ccncc2)s1 | 25.1 µM [falling, single point]
Cc1cc2cc3c(cc2nc1SCC(=O)Nc1nc(C)c(C)s1)OCO3 | 22.4 µM [rising, single point]
O=C(CSc1nnc(CNC(=O)C23CC4CC(CC(C4)C2)C3)n1-c1ccc(F)cc1)Nc1ccccc1 | 31.6 µM [rising, single point]
COc1ccc(-c2nn3c(-c4ccc(OC)cc4)nnc3c3ccccc23)cc1 | 0.794 µM [falling, full curve, poor fit]
O=C(CN1CCOCC1)Nc1ncc(Br)cc1Br | 0.00398 µM [falling, full curve, poor fit]
CCOC(=O)C1C(=O)CC(C)(O)C(C(=O)OCC)C1c1ccccc1 (centres undefined) | 0.2 µM [rising, full curve]
COc1ccc(CN(CCC(c2ccc3c(c2)OCO3)c2ccccc2OC)C(C)=O)cc1 (centres undefined) | 0.891 µM [falling, full curve]
